Like-named read-outs stand apart in the source and are kept apart here. No constants are given. Whether binding was seen depends on the method and setting. Binding seen in cells or lysates may run through a third protein. Some results given as binding are weak or reduced against the parent protein; the word gives no strength. For part of these data: Tags and fused reporters may be left off the sequences shown. Each block holds one molecule with its values, some of them ahead of it.
Experiments:
[1] = target: Halo-ANKRD22 fusion protein (Ankyrin repeat domain-containing protein 22 fused with Halo-tag) (UniProt Q5VYY1); assay: pull-down; Halo-tag pull-down (called Co-IP by the paper) from lysate of RKO cells expressing Halo-ANKRD22 on HaloLink resin, Western blot of the eluate; 2D or organoid culture; also after SLC25A5 or ESYT1 knock-down; eluent of control cells as negative control
[2] = target: T1, Flag-SLC25A5 (Flag-tagged ANT2) (UniProt P05141); assay: co-IP; Flag-SLC25A5/pcDNA3.1(-) or pcDNA3.1(-) transfected into E-Syt1-overexpressing 293T cells, Co-IP after 48 hours
T1 sequence: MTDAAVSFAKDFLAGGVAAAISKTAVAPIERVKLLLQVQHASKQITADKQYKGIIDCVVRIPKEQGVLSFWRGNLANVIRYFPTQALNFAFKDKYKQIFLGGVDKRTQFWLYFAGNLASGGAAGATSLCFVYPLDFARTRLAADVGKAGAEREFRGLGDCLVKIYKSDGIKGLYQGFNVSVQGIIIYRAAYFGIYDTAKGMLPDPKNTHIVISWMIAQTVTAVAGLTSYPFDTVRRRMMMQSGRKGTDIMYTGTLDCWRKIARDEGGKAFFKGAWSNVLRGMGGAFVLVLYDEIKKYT

Chains of the proteins cited; added tags and fusions are not shown. Residues count along the entry.
UniProt Q5VYY1: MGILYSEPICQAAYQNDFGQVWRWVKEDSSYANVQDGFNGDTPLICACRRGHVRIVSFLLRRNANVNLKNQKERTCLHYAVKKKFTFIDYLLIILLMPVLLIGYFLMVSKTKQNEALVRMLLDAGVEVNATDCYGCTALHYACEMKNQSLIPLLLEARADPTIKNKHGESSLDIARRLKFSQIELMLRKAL
UniProt Q15118, residues 29-436: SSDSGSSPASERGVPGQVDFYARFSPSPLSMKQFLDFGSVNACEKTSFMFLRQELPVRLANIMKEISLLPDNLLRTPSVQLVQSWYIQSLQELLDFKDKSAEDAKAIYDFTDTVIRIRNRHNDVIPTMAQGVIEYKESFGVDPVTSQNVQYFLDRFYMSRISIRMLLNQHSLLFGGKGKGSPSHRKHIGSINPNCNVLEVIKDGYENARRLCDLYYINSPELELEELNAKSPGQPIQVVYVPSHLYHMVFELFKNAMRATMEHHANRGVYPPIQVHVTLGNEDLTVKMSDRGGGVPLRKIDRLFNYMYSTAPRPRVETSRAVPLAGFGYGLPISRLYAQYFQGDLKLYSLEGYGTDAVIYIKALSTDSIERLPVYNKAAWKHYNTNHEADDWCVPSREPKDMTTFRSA

[3] = target: Halo-ANKRD22 fusion protein (Ankyrin repeat domain-containing protein 22 fused with Halo-tag) (UniProt Q5VYY1); assay: pull-down; Halo-tag pull-down (called Co-IP by the paper) from lysate of RKO cells expressing Halo-ANKRD22 on HaloLink resin, Western blot of the eluate; 2D or organoid culture; also after SLC25A5 or ESYT1 knock-down; eluent of control cells as negative control; remark: listed apart in the source

binding [1]: binds
Molecule: pyruvate dehydrogenase kinase isoform 1 (PDK1) (from UniProt Q15118 29-436) (enzyme)

binding [2]: binds
B1: Extended Synaptotagmin-1 (E-Syt1), overexpressed (protein, UniProt Q9BSJ8 1-1104)
chain: MERSPGEGPSPSPMDQPSAPSDPTDQPPAAHAKPDPGSGGQPAGPGAAGEALAVLTSFGRRLLVLIPVYLAGAVGLSVGFVLFGLALYLGWRRVRDEKERSLRAARQLLDDEEQLTAKTLYMSHRELPAWVSFPDVEKAEWLNKIVAQVWPFLGQYMEKLLAETVAPAVRGSNPHLQTFTFTRVELGEKPLRIIGVKVHPGQRKEQILLDLNISYVGDVQIDVEVKKYFCKAGVKGMQLHGVLRVILEPLIGDLPFVGAVSMFFIRRPTLDINWTGMTNLLDIPGLSSLSDTMIMDSIAAFLVLPNRLLVPLVPDLQDVAQLRSPLPRGIIRIHLLAARGLSSKDKYVKGLIEGKSDPYALVRLGTQTFCSRVIDEELNPQWGETYEVMVHEVPGQEIEVEVFDKDPDKDDFLGRMKLDVGKVLQASVLDDWFPLQGGQGQVHLRLEWLSLLSDAEKLEQVLQWNWGVSSRPDPPSAAILVVYLDRAQDLPLKKGNKEPNPMVQLSIQDVTQESKAVYSTNCPVWEEAFRFFLQDPQSQELDVQVKDDSRALTLGALTLPLARLLTAPELILDQWFQLSSSGPNSRLYMKLVMRILYLDSSEICFPTVPGCPGAWDVDSENPQRGSSVDAPPRPCHTTPDSQFGTEHVLRIHVLEAQDLIAKDRFLGGLVKGKSDPYVKLKLAGRSFRSHVVREDLNPRWNEVFEVIVTSVPGQELEVEVFDKDLDKDDFLGRCKVRLTTVLNSGFLDEWLTLEDVPSGRLHLRLERLTPRPTAAELEEVLQVNSLIQTQKSAELAAALLSIYMERAEDLPLRKGTKHLSPYATLTVGDSSHKTKTISQTSAPVWDESASFLIRKPHTESLELQVRGEGTGVLGSLSLPLSELLVADQLCLDRWFTLSSGQGQVLLRAQLGILVSQHSGVEAHSHSYSHSSSSLSEEPELSGGPPHITSSAPELRQRLTHVDSPLEAPAGPLGQVKLTLWYYSEERKLVSIVHGCRSLRQNGRDPPDPYVSLLLLPDKNRGTKRRTSQKKRTLSPEFNERFEWELPLDEAQRRKLDVSVKSNSSFMSRERELLGKVQLDLAETDLSQGVARWYDLMDNKDKGSS

binding [3]: binds
B2: Extended Synaptotagmin-1 (E-Syt1) (protein, UniProt Q9BSJ8 1-1104)
chain: B1 chain

Reference: paper PMC6929986
